Results published in PubChem BioAssay AID504834 (National Center for Advancing Translational Sciences (NCATS), 2011).
Among all 320,000 compounds or so, about 22,000 (6.9%) were called active. The inconclusive results got no clear call from the source; some entries with a clear call stand among them for comparison. Calls come from the whole dose curve; as a rule, active = well fitted inhibition curve with a large enough effect; inconclusive = small, poorly fitted or top-dose-only effect, or another doubt; inactive = no such curve, though single readings can be large or run the other way. A potency beside an inconclusive call is a rough fit, not a confirmed value.

Assay: Primary qHTS for delayed death inhibitors of the malarial parasite plastid, 96 hour incubation
Details: P. falciparum luciferase reporter growth; series mostly up to 28.7 µM
Outline: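 P. falciparum expressing integrated firefly luciferase, in erythrocytes at 2% hematocrit, 0.05% parasitemia, incubated with compounds 96 h at 37 C, 5% CO2. Growth inhibition read as loss of luminescence; two-generation exposure targets delayed-death apicoplast inhibitors.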
Potency is the fitted concentration of half-maximal effect.

| Compound | Potency |
| --- | --- |
| O=C(/C=C/c1ccco1)N(Cc1ccc(F)cc1)C1CCS(=O)(=O)C1 (configuration not stated) | inactive |
| COc1ccc(NC(=O)c2nn(C)c(=O)c3ccccc23)cc1S(=O)(=O)Nc1ccccc1Cl | inactive |
| COc1cc2ccccc2cc1C(=O)OCC(=O)c1c(N)n(C)c(=O)n(C)c1=O | inconclusive: 13.1 µM [inhibitor, single point] |
| CN1CCN(c2ccccc2NC(=O)c2ccc(-c3cccc([N+](=O)[O-])c3)o2)CC1 | inconclusive: 9.28 µM [inhibitor, partial curve] |
| CC(=O)Nc1ccc(Nc2nc(-c3sc(C)nc3C)cs2)cc1 | inconclusive: 10.4 µM [inhibitor, single point] |
| COC(=O)[C@]1(Cc2ccccc2)N[C@H](c2ccc(-c3cc(C(C)=O)cs3)cc2)[C@@H]2C(=O)N(C)C(=O)[C@@H]21 | inconclusive: 11.7 µM [inhibitor, single point] |
| CCOc1ccc(C(C)=O)cc1COC(=O)c1ccc2c(c1)NC(=O)CS2 | inconclusive: 9.28 µM [inhibitor, partial curve, poor fit] |
| CCOc1ccc(N=CC2=C(O)CC(C)(C)CC2=O)cc1 | inactive |
| CCCn1ncc(CN2CCC(n3nccc3NC(=O)c3ccccc3OC)CC2)c1C | inconclusive: 18.5 µM [inhibitor, single point] |
| CCOc1ccc(N(C(=O)c2ccc3c(c2)OCO3)C2C=CS(=O)(=O)C2)cc1 (configuration not stated) | inactive |
| COc1cccc(NC(=O)NCc2ccccn2)c1 | active: 2.08 µM |
| O=C(Nc1ccccc1C(F)(F)F)c1cc(-c2ccccc2O)on1 | active: 0.465 µM |
| COc1ccc(CCNC(=O)c2cc(S(=O)(=O)N3CCC4(CC3)OCCO4)ccc2F)cc1OC | inconclusive: 18.5 µM [inhibitor, single point] |
| CCCCn1c(N)c(N(CCOC)C(=O)c2cc(-c3ccc(C)cc3)nc3ccccc23)c(=O)[nH]c1=O | active: 11.7 µM |
| Cn1c2ccc(F)cc2c2nc3ccccc3nc21 | inconclusive: 10.4 µM [inhibitor, single point] |
| NNC(=O)c1cc(-c2ccc(N)cc2)nc2ccc(Br)cc12 | inconclusive: 14.7 µM [inhibitor, partial curve] |
| Cc1nnc(N2C(=O)C(O)=C(C(=O)c3ccco3)C2c2ccc(C(C)(C)C)cc2)s1 (configuration not stated) | inactive |
| Cn1cc(CN2CCC(O)CC2)c(-c2ccc(Oc3ccccc3)cc2)n1 | active: 9.28 µM |
| O=C(Cc1cn(-c2ccccc2)nc1-c1ccccc1)N1CCCCC1 | inconclusive: 0.185 µM [inhibitor, full curve, poor fit] |
| Cc1cccc(NS(=O)(=O)c2ccc(C(=O)N3CCC3)cc2)c1C | inactive |
| N#Cc1c(NC(=S)NC(=O)c2ccccc2)sc2c1CCC2 | inactive |

| Compound | Potency |
| --- | --- |
| O=C(Nc1cccnc1Cl)C1=NN(c2ccccc2)C(=O)CC1 | inconclusive: 2.33 µM [inhibitor, full curve, poor fit] |
| Cc1ccc2nc(Cn3cc(C(F)(F)F)ccc3=O)cc(=O)n2c1 | inactive |
| Cc1cc(C)n(-c2ccc(NC(=O)C3CCN(Cc4cc(C)c(C)o4)CC3)cc2)n1 | inactive |
| O=C(Nc1cccc(Cl)c1Cl)C1CCCO1 (configuration not stated) | inconclusive: 11.7 µM [inhibitor, partial curve] |
| Cc1ccc(NC(=O)/C(=C\c2cccc([N+](=O)[O-])c2)NC(=O)c2cccs2)cc1 | inconclusive: 0.522 µM [inhibitor, full curve, poor fit] |
| COc1ccc([N+](=O)[O-])cc1N(CC(=O)Nc1ccccc1C(=O)N1CCCC1)S(C)(=O)=O | inconclusive: 18.5 µM [inhibitor, partial curve, poor fit] |
| C/C(=N\NC(=O)c1ccc2c(c1)OCO2)c1ccc(C(=O)O)s1 | inconclusive: 0.0465 µM [inhibitor, full curve, poor fit] |
| CCSc1ncc(/C=N/Nc2ccccc2)n1C | active: 2.62 µM |
| CS(=O)(=O)c1ccc(C(=O)Nc2ccc(N3CCCCC3)cc2)c(Cl)c1 | inconclusive: 2.33 µM [inhibitor, single point] |
| COc1ccc2c(CC(=O)Nc3ccc(OC)c(S(=O)(=O)N4CCOCC4)c3)coc2c1 | inactive |
| O=C1c2ccccc2C(=O)c2c1cccc2N1CCN(Cc2ccccc2)CC1 | inconclusive: 18.5 µM [inhibitor, single point] |
| COc1cccc(-c2nc(CS(=O)(=O)CC(=O)NCc3ccc4c(c3)OCO4)c(C)o2)c1 | inconclusive: 14.7 µM [inhibitor, single point] |
| CN(C)C1(CNC(=O)C2CCN(S(=O)(=O)c3ccccc3C(F)(F)F)CC2)CCCCC1 | inconclusive: 18.5 µM [inhibitor, single point] |
| N#Cc1ccc(/C=C/C(=O)c2ccc3c(c2)OCO3)cc1 | inconclusive: 13.1 µM [inhibitor, partial curve, poor fit] |
| O=C(/C=C/c1ccc[nH]1)c1ccc(F)cc1 | inconclusive: 18.5 µM [inhibitor, single point] |
| COc1ccccc1NC(=O)CCc1nc2sc3c(c2c(=O)[nH]1)CCCC3 | inconclusive: 18.5 µM [inhibitor, single point] |
| O=C(O)c1[nH]c2ccccc2c1C(c1c(F)cccc1Cl)c1c(C(=O)O)[nH]c2ccccc12 | inconclusive: 18.5 µM [inhibitor, single point] |
| O=C(Cn1cnc2ccccc21)Nc1ccc(F)c(F)c1 | inconclusive: 18.5 µM [inhibitor, single point] |
| Cc1c(OC(C)C(=O)N2C[C@H]3C[C@@H](C2)c2cccc(=O)n2C3)ccc2c3c(c(=O)oc12)CCCC3 (some centres not stated) | inconclusive: 13.1 µM [inhibitor, single point] |
| COc1ccc(C(=O)Nc2c(N)nc(SCC(=O)c3ccccc3)[nH]c2=O)cc1 | inconclusive: 18.5 µM [inhibitor, single point] |
| COc1ccc(C2CC(C(F)(F)F)n3nc(C(=O)NCc4c(C)nn(C)c4C)c(Cl)c3N2)cc1 (configuration not stated) | inactive |

8 of these compounds, set out differently:
Compound,Potency
Cc1ccc(NC(=O)/C(=C\c2cccc([N+](=O)[O-])c2)NC(=O)c2cccs2)cc1,"inconclusive: 0.522 µM [inhibitor, full curve, poor fit]"
CCSc1ncc(/C=N/Nc2ccccc2)n1C,active: 2.62 µM
CS(=O)(=O)c1ccc(C(=O)Nc2ccc(N3CCCCC3)cc2)c(Cl)c1,"inconclusive: 2.33 µM [inhibitor, single point]"
O=C1c2ccccc2C(=O)c2c1cccc2N1CCN(Cc2ccccc2)CC1,"inconclusive: 18.5 µM [inhibitor, single point]"
COc1ccccc1NC(=O)CCc1nc2sc3c(c2c(=O)[nH]1)CCCC3,"inconclusive: 18.5 µM [inhibitor, single point]"
O=C(O)c1[nH]c2ccccc2c1C(c1c(F)cccc1Cl)c1c(C(=O)O)[nH]c2ccccc12,"inconclusive: 18.5 µM [inhibitor, single point]"
Cc1c(OC(C)C(=O)N2C[C@H]3C[C@@H](C2)c2cccc(=O)n2C3)ccc2c3c(c(=O)oc12)CCCC3 (some centres not stated),"inconclusive: 13.1 µM [inhibitor, single point]"
COc1ccc(C(=O)Nc2c(N)nc(SCC(=O)c3ccccc3)[nH]c2=O)cc1,"inconclusive: 18.5 µM [inhibitor, single point]"
